{
  "source": "paper PMC6405930",
  "about": "“Conservation of the Amyloid Interactome Across Diverse Fibrillar Structures” (Scientific Reports, 2019)",
  "data": [
    {"assay": "In-solution digest of CSF, quantitative MS/MS (relative protein composition)", "parameters": "species or system human; key to Identification status: CSF: *: Identified, but not quantified; —: Not identified in any of the samples", "settings": "original CSF, no fibrils", "values": [
      {"molecule": "Cystatin-C: CSF protein bound to fibrils (protein, UniProt P01034 27-146, looked up) Cystatin-C: SSPGKPPRLVGGPMDASVEEEGVRRALDFAVGEYNKASNDMYHSRALQVVRARKQIVAGVNYFLDVELGRTTCTKTQPNLDNCPFHDQPHLKRKAFCSFQIYAVPWQGTMTLSKSTCQDA", "Relative composition of CSF proteins: CSF": "4.6 ± 0.3 % of total protein"},
      {"molecule": "α2-HS-glycoprotein: CSF protein bound to fibrils (protein, UniProt P02765 19-300; P02765 341-367, looked up) Alpha-2-HS-glycoprotein chain … 1: APHGPGLIYRQPNCDDPETEEAALVAIDYINQNLPWGYKHTLNQIDEVKVWPQQPSGELFEIEIDTLETTCHVLDPTPVARCSVRQLKEHAVEGDCDFQLLKLDGKFSVVYAKCDSSPDSAEDVRKVCQDCPLLAPLNDTRVVHAAKAALAAFNAQNNGSNFQLEEISRAQLVPLPPSTYVEFTVSGTDCVAKEATEAAKCNLLAEKQYGFCKATLSEKLGGAEVAVTCMVFQTQPVSSQPQPEGANEAVPTPVVDPDAPPSPPLGAPGLPPAGSPPDSHVL Alpha-2-HS-glycoprotein chain … 2: TVVQPSVGAAAGPVVPPCPGRIRHFKV", "Relative composition of CSF proteins: CSF": "0.2 ± 0.0 % of total protein"},
      {"molecule": "Vitamin D-binding protein: CSF protein bound to fibrils (protein, UniProt P02774 17-474, looked up) Vitamin D-binding protein: LERGRDYEKNKVCKEFSHLGKEDFTSLSLVLYSRKFPSGTFEQVSQLVKEVVSLTEACCAEGADPDCYDTRTSALSAKSCESNSPFPVHPGTAECCTKEGLERKLCMAALKHQPQEFPTYVEPTNDEICEAFRKDPKEYANQFMWEYSTNYGQAPLSLLVSYTKSYLSMVGSCCTSASPTVCFLKERLQLKHLSLLTTLSNRVCSQYAAYGEKKSRLSNLIKLAQKVPTADLEDVLPLAEDITNILSKCCESASEDCMAKELPEHTVKLCDNLSTKNSKFEDCCQEKTAMDVFVCTYFMPAAQLPELPDVELPTNKDVCDPGNTKVMDKYTFELSRRTHLPEVFLSKVLEPTLKSLGECCDVEDSTTCFNAKGPLLKKELSSFIDKGQELCADYSENTFTEYKKKLAERLKAKLPDATPTELAKLVNKHSDFASNCCSINSPPLYCDSEIDAELKNIL", "Relative composition of CSF proteins: CSF": "0.0 ± 0.0 % of total protein"}
    ]},
    {"assay": "In-solution digest of CSF, quantitative MS/MS (relative protein composition)", "parameters": "species or system human; key to Identification status: CSF: *: Identified, but not quantified; —: Not identified in any of the samples", "settings": "original CSF, symbol cells", "values": [
      {"molecule": "Fibulin-1: CSF protein bound to fibrils (protein, UniProt P23142 30-703, looked up) Fibulin-1: DVLLEACCADGHRMATHQKDCSLPYATESKECRMVQEQCCHSQLEELHCATGISLANEQDRCATPHGDNASLEATFVKRCCHCCLLGRAAQAQGQSCEYSLMVGYQCGQVFQACCVKSQETGDLDVGGLQETDKIIEVEEEQEDPYLNDRCRGGGPCKQQCRDTGDEVVCSCFVGYQLLSDGVSCEDVNECITGSHSCRLGESCINTVGSFRCQRDSSCGTGYELTEDNSCKDIDECESGIHNCLPDFICQNTLGSFRCRPKLQCKSGFIQDALGNCIDINECLSISAPCPIGHTCINTEGSYTCQKNVPNCGRGYHLNEEGTRCVDVDECAPPAEPCGKGHRCVNSPGSFRCECKTGYYFDGISRMCVDVNECQRYPGRLCGHKCENTLGSYLCSCSVGFRLSVDGRSCEDINECSSSPCSQECANVYGSYQCYCRRGYQLSDVDGVTCEDIDECALPTGGHICSYRCINIPGSFQCSCPSSGYRLAPNGRNCQDIDECVTGIHNCSINETCFNIQGGFRCLAFECPENYRRSAATLQQEKTDTVRCIKSCRPNDVTCVFDPVHTISHTVISLPTFREFTRPEEIIFLRAITPPHPASQANIIFDITEGNLRDSFDIIKRYMDGMTVGVVRQVRPIVGPFHAVLKLEMNYVVGGVVSHRNVVNVHIFVSEYWF", "Identification status: CSF": "*"},
      {"molecule": "Amyloid-like protein 1: CSF protein bound to fibrils (protein, UniProt P51693 39-650, looked up) Amyloid beta precursor like …: SLAGGSPGAAEAPGSAQVAGLCGRLTLHRDLRTGRWEPDPQRSRRCLRDPQRVLEYCRQMYPELQIARVEQATQAIPMERWCGGSRSGSCAHPHHQVVPFRCLPGEFVSEALLVPEGCRFLHQERMDQCESSTRRHQEAQEACSSQGLILHGSGMLLPCGSDRFRGVEYVCCPPPGTPDPSGTAVGDPSTRSWPPGSRVEGAEDEEEEESFPQPVDDYFVEPPQAEEEEETVPPPSSHTLAVVGKVTPTPRPTDGVDIYFGMPGEISEHEGFLRAKMDLEERRMRQINEVMREWAMADNQSKNLPKADRQALNEHFQSILQTLEEQVSGERQRLVETHATRVIALINDQRRAALEGFLAALQADPPQAERVLLALRRYLRAEQKEQRHTLRHYQHVAAVDPEKAQQMRFQVHTHLQVIEERVNQSLGLLDQNPHLAQELRPQIQELLHSEHLGPSELEAPAPGGSSEDKGGLQPPDSKDDTPMTLPKGSTEQDAASPEKEKMNPLEQYERKVNASVPRGFPFHSSEIQRDELAPAGTGVSREAVSGLLIMGAGGGSLIVLSMLLLRRKKPYGAISHGVVEVDPMLTLEEQQLRELQRHGYENPTYRFLEERP", "Identification status: CSF": "*"},
      {"molecule": "Calsyntenin-1: CSF protein bound to fibrils (protein, UniProt O94985 29-981, looked up) Calsyntenin-1: ARVNKHKPWLEPTYHGIVTENDNTVLLDPPLIALDKDAPLRFAESFEVTVTKEGEICGFKIHGQNVPFDAVVVDKSTGEGVIRSKEKLDCELQKDYSFTIQAYDCGKGPDGTNVKKSHKATVHIQVNDVNEYAPVFKEKSYKATVIEGKQYDSILRVEAVDADCSPQFSQICSYEIITPDVPFTVDKDGYIKNTEKLNYGKEHQYKLTVTAYDCGKKRATEDVLVKISIKPTCTPGWQGWNNRIEYEPGTGALAVFPNIHLETCDEPVASVQATVELETSHIGKGCDRDTYSEKSLHRLCGAAAGTAELLPSPSGSLNWTMGLPTDNGHDSDQVFEFNGTQAVRIPDGVVSVSPKEPFTISVWMRHGPFGRKKETILCSSDKTDMNRHHYSLYVHGCRLIFLFRQDPSEEKKYRPAEFHWKLNQVCDEEWHHYVLNVEFPSVTLYVDGTSHEPFSVTEDYPLHPSKIETQLVVGACWQEFSGVENDNETEPVTVASAGGDLHMTQFFRGNLAGLTLRSGKLADKKVIDCLYTCKEGLDLQVLEDSGRGVQIQAHPSQLVLTLEGEDLGELDKAMQHISYLNSRQFPTPGIRRLKITSTIKCFNEATCISVPPVDGYVMVLQPEEPKISLSGVHHFARAASEFESSEGVFLFPELRIISTITREVEPEGDGAEDPTVQESLVSEEIVHDLDTCEVTVEGEELNHEQESLEVDMARLQQKGIEVSSSELGMTFTGVDTMASYEEVLHLLRYRNWHARSLLDRKFKLICSELNGRYISNEFKVEVNVIHTANPMEHANHMAAQPQFVHPEHRSFVDLSGHNLANPHPFAVVPSTATVVIVVCVSFLVFMIILGVFRIRAAHRRTMRDQDTGKENEMDWDDSALTITVNPMETYEDQHSSEEEEEEEEEEESEDGEEEDDITSAESESSEEEEGEQGDPQNATRQQQLEWDDSTLSY", "Identification status: CSF": "*"},
      {"molecule": "EGF-containing fibulin-like extracellular matrix protein 1: CSF protein bound to fibrils (protein, UniProt Q12805 18-493, looked up) EGF-containing fibulin-like …: QDTEETITYTQCTDGYEWDPVRQQCKDIDECDIVPDACKGGMKCVNHYGGYLCLPKTAQIIVNNEQPQQETQPAEGTSGATTGVVAASSMATSGVLPGGGFVASAAAVAGPEMQTGRNNFVIRRNPADPQRIPSNPSHRIQCAAGYEQSEHNVCQDIDECTAGTHNCRADQVCINLRGSFACQCPPGYQKRGEQCVDIDECTIPPYCHQRCVNTPGSFYCQCSPGFQLAANNYTCVDINECDASNQCAQQCYNILGSFICQCNQGYELSSDRLNCEDIDECRTSSYLCQYQCVNEPGKFSCMCPQGYQVVRSRTCQDINECETTNECREDEMCWNYHGGFRCYPRNPCQDPYILTPENRCVCPVSNAMCRELPQSIVYKYMSIRSDRSVPSDIFQIQATTIYANTINTFRIKSGNENGEFYLRQTSPVSAMLVLVKSLSGPREHIVDLEMLTVSSIGTFRTSSVLRLTIIVGPFSF", "Identification status: CSF": "*"},
      {"molecule": "Mimecan: CSF protein bound to fibrils (protein, UniProt P20774 21-298, looked up) Mimecan: PPTQQDSRIIYDYGTDNFEESIFSQDYEDKYLDGKNIKEKETVIIPNEKSLQLQKDEAITPLPPKKENDEMPTCLLCVCLSGSVYCEEVDIDAVPPLPKESAYLYARFNKIKKLTAKDFADIPNLRRLDFTGNLIEDIEDGTFSKLSLLEELSLAENQLLKLPVLPPKLTLFNAKYNKIKSRGIKANAFKKLNNLTFLYLDHNALESVPLNLPESLRVIHLQFNNIASITDDTFCKANDTSYIRDRIEEIRLEGNPIVLGKHPNSFICLKRLPIGSYF", "Identification status: CSF": "*"},
      {"molecule": "SPARC-like protein 1: CSF protein bound to fibrils (protein, UniProt Q14515 17-664, looked up) SPARC-like protein 1: IPTNARLLSDHSKPTAETVAPDNTAIPSLRAEAEENEKETAVSTEDDSHHKAEKSSVLKSKEESHEQSAEQGKSSSQELGLKDQEDSDGHLSVNLEYAPTEGTLDIKEDMSEPQEKKLSENTDFLAPGVSSFTDSNQQESITKREENQEQPRNYSHHQLNRSSKHSQGLRDQGNQEQDPNISNGEEEEEKEPGEVGTHNDNQERKTELPREHANSKQEEDNTQSDDILEESDQPTQVSKMQEDEFDQGNQEQEDNSNAEMEEENASNVNKHIQETEWQSQEGKTGLEAISNHKETEEKTVSEALLMEPTDDGNTTPRNHGVDDDGDDDGDDGGTDGPRHSASDDYFIPSQAFLEAERAQSIAYHLKIEEQREKVHENENIGTTEPGEHQEAKKAENSSNEEETSSEGNMRVHAVDSCMSFQCKRGHICKADQQGKPHCVCQDPVTCPPTKPLDQVCGTDNQTYASSCHLFATKCRLEGTKKGHQLQLDYFGACKSIPTCTDFEVIQFPLRMRDWLKNILMQLYEANSEHAGYLNEKQRNKVKKIYLDEKRLLAGDHPIDLLLRDFKKNYHMYVYPVHWQFSELDQHPMDRVLTHSELAPLRASLVPMEHCITRFFEECDPNKDKHITLKEWGHCFGIKEEDIDENLLF", "Identification status: CSF": "*"}
    ]},
    {"assay": "In-solution digest of plasma, quantitative MS/MS (relative protein composition)", "parameters": "species or system human", "settings": "original plasma, no fibrils", "values": [
      {"molecule": "Ig μ chain C region: plasma protein bound to fibrils (protein, UniProt P01871 1-474, looked up) Immunoglobulin heavy constant …: GSASAPTLFPLVSCENSPSDTSSVAVGCLAQDFLPDSITFSWKYKNNSDISSTRGFPSVLRGGKYAATSQVLLPSKDVMQGTDEHVVCKVQHPNGNKEKNVPLPVIAELPPKVSVFVPPRDGFFGNPRKSKLICQATGFSPRQIQVSWLREGKQVGSGVTTDQVQAEAKESGPTTYKVTSTLTIKESDWLGQSMFTCRVDHRGLTFQQNASSMCVPDQDTAIRVFAIPPSFASIFLTKSTKLTCLVTDLTTYDSVTISWTRQNGEAVKTHTNISESHPNATFSAVGEASICEDDWNSGERFTCTVTHTDLPSPLKQTISRPKGVALHRPDVYLLPPAREQLNLRESATITCLVTGFSPADVFVQWMQRGQPLSPEKYVTSAPMPEPQAPGRYFAHSILTVSEEEWNTGETYTCVVAHEALPNRVTERTVDKSTEGEVSADEEGFENLWATASTFIVLFLLSLFYSTTVTLFKVK", "Relative composition of plasma proteins: Plasma": "0.3 ± 0.0 % of total protein"}
    ]}
  ]
}
